Experimental data taken from article PMC12040169 (PLOS Biology, 2025).
This is one part of the list.

Test system: T1, CTL2-GFP (C. trachomatis L2/434/Bu, GFP-expressing)
T1 construct: L2/434/Bu, GFP-expressing
Design: species or system HeLa; Intracellular C. trachomatis growth in HeLa cells, bulk GFP fluorescence relative to DMSO
Conditions: bulk GFP, single well; 28.5 h, 10 µM; inhibitor

Row | SMILES | % of control remaining
1 | Cc1ccc([N+](=O)[O-])c(OCCN2CCN(Cc3ccccc3)CC2)c1 [CBK268568G] | 114.307%
2 | COc1ccccc1NC(=O)CCn1c(C(F)F)cc2cccnc21 [CBK285065] | 127.131%
3 | COc1cc2c(c(OC)c1OC)C(c1ccccc1C)CC(=O)N2 (stereo not shown) [CBK288205] | 118.038%
4 | CC1(NC(=O)CC2C(=O)NCCN2Cc2cccc(F)c2)CCC1 (stereo not shown) [CBK281611] | 146.361%
5 | CC(=O)N[C@H]1CO[C@H]2[C@@H]1OC[C@H]2OC(=O)Nc1ccc(Oc2ccccc2)cc1 [CBK289470] | 88.3517%
6 | COc1ccc(C(C)c2cc3c(cc2OC)OCO3)c(F)c1 (stereo not shown) [CBK200112] | 103.027%
7 | N#CC1=C(Nc2ccccc2)Oc2cc(N)ccc2C1c1cccnc1 (stereo not shown) [CBK269435] | 88.7205%
8 | O=C(O)C1C2C=CC(C2)C1C(=O)N1CCN(Cc2ccc(Cl)cc2)CC1 (stereo not shown) [CBK270318] | 136.222%
9 | Cc1cc(C)c(NC(=O)CSc2n[nH]c(=O)n2C2CC2)c(C)c1 [CBK295598] | 103.701%
10 | Cc1cc(C)cc(N(CC(=O)Nc2ccccc2-c2ccccc2)S(=O)(=O)c2ccccc2)c1 [CBK265933] | 106.241%
11 | Cc1nc2ccc(C(=O)NC(C)Cc3cccs3)cc2[nH]1 (stereo not shown) [CBK282487] | 131.483%
12 | Fc1ccc(-c2cn(-c3ccc(OCc4ccccc4)c(F)c3)nn2)cc1 [CBK113121] | 173.54%
13 | COc1ccc(OC)c(NC(=O)CSc2ccc(-c3ccncc3)nn2)c1 [CBK287637] | 130.992%
14 | Cc1ccc(S(=O)(=O)NCCCN2CCOCC2)c(C)c1C [CBK264990] | 100%
15 | OCc1nnn(-c2ccncc2)c1CO [CBK288549] | 114.297%
16 | CC1CCN(CCCNS(=O)(=O)c2ccc(N3CCCC3=O)cc2)CC1 [CBK304220] | 140.741%
17 | Cc1csc(C(Cc2ccsc2)NC(=O)Cn2ccnc2)n1 (stereo not shown) [CBK285113] | 135.571%
18 | CC1CCCCN1Cc1nc2c(c(=O)n(C)c(=O)n2C)n1Cc1ccc(Br)cc1 (stereo not shown) [CBK269184] | 116.668%
19 | Cc1cccc(C2N3CCC4(CC3)c3[nH]c5ccccc5c3CCN24)n1 (stereo not shown) [CBK284435] | 135.961%
20 | O=C(c1ccccc1)c1ccc2[nH]nnc2c1 [CBK091608] | 124.357%
21 | OCc1cccc(-c2nccnc2NCc2ccncc2)c1 [CBK037446] | 110.226%
22 | CC(=O)NCCc1nc2ccc(NC(=O)Cn3nc(C)c4ccccc4c3=O)cc2n1C [CBK268249] | 87.1526%

Part of the list above, tab-delimited.
Row	SMILES	% of control remaining
9	Cc1cc(C)c(NC(=O)CSc2n[nH]c(=O)n2C2CC2)c(C)c1 [CBK295598]	103.701%
12	Fc1ccc(-c2cn(-c3ccc(OCc4ccccc4)c(F)c3)nn2)cc1 [CBK113121]	173.54%
